Results from paper PMC6050966, “Structure-Function Analysis of the Curli Accessory Protein CsgE Defines Surfaces Essential for Coordinating Amyloid Fiber Formation” (mBio, 2018).
These are yes or no findings as the source states them, for the method shown. Some entries that bind do so weakly or less than the wild type. Where a sequence is shown, tags or fusion partners need not be part of it.

Columns and labels:
[1] = biological target: T1, WT CsgE (6x-His-tagged, E. coli MC4100) (E. coli MC4100), P0AE95; assay: native gel or EMSA; native PAGE of purified CsgE (monomer peak) incubated at 37°C for various times; both purified; conditions: remark: other sources report otherwise
T1 chain: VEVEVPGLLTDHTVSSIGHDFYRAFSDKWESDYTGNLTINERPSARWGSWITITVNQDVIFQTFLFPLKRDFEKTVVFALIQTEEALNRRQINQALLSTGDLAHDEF

[2] = biological target: T1, WT CsgE (6x-His-tagged, E. coli MC4100) …; assay: SEC-MALS; Superdex 200 Increase 10/300 GL, 0.3 ml/min; protein at 2 mg/ml in 50 mM KHPO4 pH 7.3 with and without 150 mM NaCl; both purified; conditions: remark: other sources report otherwise

binding [1]: binds | binding [2]: binds
B1: WT CsgE (6x-His-tagged, E. coli MC4100), P0AE95 23-129 (natural protein)
chain: VEVEVPGLLTDHTVSSIGHDFYRAFSDKWESDYTGNLTINERPSARWGSWITITVNQDVIFQTFLFPLKRDFEKTVVFALIQTEEALNRRQINQALLSTGDLAHDEF
